In PMC12561426:
Results are given in words; binding and its absence hold for the method and conditions named.

Target: NRF2^DBD (human) (UniProt Q16236)
Experiment: cross-linking; glutaraldehyde by hanging-drop vapour diffusion, 5-7 uM protein, 15 min (sMafG^DBD) or 45 min (BACH1^DBD), stopped with 250 mM ammonium sulfate, SDS-PAGE with Coomassie; without DNA; both purified

binding: no binding
B1: NRF2^DBD (domain or fragment, UniProt Q16236 451-567)
chain: EAHLTRDELRAKALHIPFPVEKIINLPVVDFNEMMSKEQFNEAQLALIRDIRRRGKNKVAAQNCRKRKLENIVELEQDLDHLKDEKEKLLKEKGENDKSLHLLKKQLSTLYLEVFSM
